Measurements as given in PubChem BioAssay AID1347076 (National Center for Advancing Translational Sciences (NCATS), 2019).
Hit rate of the full screen: of about 400,000 compounds, about 13,000 (3.2%) were called active. This list was built around the results that the source calls inconclusive (neither active nor inactive); the mix of calls is not that of the screen. Calls follow the shape of the dose curve; as a rule, active = well fitted cell-killing curve with a large enough effect; inconclusive = small, poorly fitted or top-dose-only effect, or effect the other way; inactive = flat fitted curve, though single readings scatter. A potency beside an inconclusive call is a rough fit, not a confirmed value.

assay: qHTS assay for MDR1-selective chemotherapeutics: Primary screen using the drug-selected MDR subline cells KB-V1; conditions: KB-V1 MDR cells viability, CellTiter-Glo, 72 h; activity change, negative = cytotoxicity: at 46.1 µM (top of the series); also: nearly all actives have a fitted effect of over 60% in size
Outline: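 Potencies derive from concentration-effect curves fitted to normalized luminescence (CellTiter-Glo) of KB-V1 cells treated for 72 h at 37 degrees C in phenol-red-free DMEM containing 10% FBS.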
% is scaled to controls: 0 for no effect and ±100 for the full control effect; potency is read from the fitted curve at half-maximal effect.

| SMILES | Potency | activity change, negative = cytotoxicity |
| --- | --- | --- |
| COc1ccc(CN(C)C[C@H]2OCCCC[C@@H](C)Oc3ccc(NS(C)(=O)=O)cc3C(=O)N([C@H](C)CO)C[C@@H]2C)cc1 | inconclusive: 18.4 µM [rising, partial curve, poor fit] | – |
| Fc1ccc(C2=CC(c3ccc(F)cc3)n3c(nc4ccccc43)N2)cc1 (stereo not given) | inconclusive: 29.1 µM [cytotoxic, single point] | – |
| CCn1c(COc2ccc(C)cc2)nnc1SCc1nc2ccccc2[nH]1 | active: 2.59 µM | – |
| CCN(Cc1ccccc1)S(=O)(=O)c1ccc(-c2coc(C)n2)cc1 | – | inconclusive: -53.9% |
| Cc1ccc(C)c(-n2c(=O)c(C#N)cc3c(=O)n4ccccc4nc32)c1 | inconclusive: 29.1 µM [cytotoxic, single point] | – |
| CCOC(=O)C1=C(C)Nc2nc(SCC)nn2C1c1ccc(OC)cc1 (stereo not given) | inconclusive: 1.16 µM [cytotoxic, full curve] | – |
| COc1ccc(CN2CCN(c3ccc(F)cc3)CC2)c(OC)c1OC | active: 8.2 µM | – |
| C(=C\c1ccc2ccccc2n1)/c1ccccc1 | inactive | – |
| COc1ccc(CN(CC2CCCO2)C(=O)c2cc3sccc3n2C)c(OC)c1 (stereo not given) | inconclusive: 6.51 µM [cytotoxic, partial curve] | – |
| COc1cccc(/C=N/NC(=O)c2ccc(N3CCCC3=O)cc2)c1 | inconclusive: 29.1 µM [cytotoxic, single point] | – |
| CCC(C)Nc1ncnc2c1cnn2-c1ccc(F)cc1 (stereo not given) | inconclusive: 29.1 µM [cytotoxic, single point] | – |
| O=C(CCCc1ccccc1)NCCS(=O)(=O)N1CCN(c2ccccc2F)CC1 | inconclusive: 18.4 µM [cytotoxic, single point] | – |
| Cc1cc(C)n(-c2nc(NC(C)(C)C)nc(NC(C)(C)C)n2)n1 | inactive | – |
| NC(N)=NCCCS(=O)(=O)Nc1ccc(Nc2c3ccccc3nc3cc([N+](=O)[O-])ccc23)cc1 | inconclusive: 8.2 µM [cytotoxic, partial curve, poor fit] | – |
| COc1ccc(-c2cc3c(=O)n(CC(=O)NCCCc4ccccc4)ncn3n2)cc1 | inconclusive: 29.1 µM [rising, single point] | – |
| Cc1ccc(NC(=S)N2CCn3cccc3C2c2cccnc2)cc1 (stereo not given) | inconclusive: 32.6 µM [cytotoxic, single point] | – |
| Cn1c(SCC(=O)N2CCN(S(=O)(=O)c3ccc(Cl)cc3)CC2)nc2ccccc21 | inactive | – |
| N#CCC(=O)Nc1sc2c(c1C(N)=O)CCCC2 | inactive | – |
| Cc1ccc(C(=O)NCCNc2nc3cc(C)c(C)cc3cc2C)cc1 | inconclusive: 29.1 µM [cytotoxic, single point] | – |
| O=c1cc(CN2CCN(S(=O)(=O)/C=C/c3ccccc3)CC2)c2ccc(O)cc2o1 | inconclusive: 18.4 µM [cytotoxic, single point] | – |
| CCOC(=O)c1c(-c2ccccc2)csc1NC(=O)CSc1ccccc1 | active: 18.4 µM | – |
| Cc1ccc(CNC(=O)CSc2ncc(C(=O)Nc3ccccc3)c(=O)n2C)cc1 | inactive | – |
| CCCS(=O)(=O)C(=C1NCCO1)S(=O)(=O)CCC | inconclusive: 14.6 µM [rising, partial curve, poor fit] | – |
| COc1cc(OC)c(OC)cc1CN1CCCC(C(=O)c2ccccc2SC)C1 (stereo not given) | inconclusive: 5.8 µM [cytotoxic, full curve] | – |
| Cn1c(CN2CCN(c3ccc(Cl)cc3)CC2)nc2ccccc21 | active: 18.4 µM | – |

| SMILES | Potency | activity change, negative = cytotoxicity |
| --- | --- | --- |
| COc1ccc(OC)c(NC(=O)CN(Cc2ccc(F)cc2)C2CCCCC2)c1 | inconclusive: 18.4 µM [cytotoxic, single point] | – |
| COc1ccccc1-c1ccc(SCC(=O)NCCc2ccccc2)nn1 | inconclusive: 16.4 µM [cytotoxic, single point] | – |
| COc1cc(OC)c(NS(=O)(=O)c2ccc3oc(=O)c4ncn(C)c4c3c2)cc1Cl | inconclusive: 29.1 µM [rising, single point] | – |
| CC(=O)c1ccc(NC(=O)Nc2cccc(Cl)c2)cc1 | inconclusive: 29.1 µM [cytotoxic, single point] | – |
| Nc1c(C=C2C=CC(=O)C=C2)c(=O)nc2snc(SCc3ccccc3)n12 | inactive | – |
| CCN(c1ccccc1)S(=O)(=O)c1ccc(C(=O)Nc2nnc(C3CC3)o2)cc1 | active: 7.31 µM | – |
| CC(CNS(=O)(=O)c1ccccc1)Sc1ncccn1 (stereo not given) | inactive | – |
| COc1ccc(OCC(=O)OCC(=O)NC2CCCC2)cc1 | – | inconclusive: 41.1% |
| COC(=O)c1sccc1S(=O)(=O)N(CC(=O)NCc1ccc(C)cc1)c1ccc(C)cc1 | inactive | – |
| O=C(Nc1ccc2c(c1)OCO2)OCc1ccccc1 | inconclusive: 29.1 µM [cytotoxic, single point] | – |
| Cc1ncc(CO)c(/C=N/NC(=O)c2cc3c(s2)CCCC3)c1O | inconclusive: 10.3 µM [cytotoxic, partial curve, poor fit] | – |
| CCCS(=O)(=O)Nc1cccc(-c2ccc3nnc(C)n3n2)c1 | inactive | – |
| COc1ccccc1NCCC#N | inconclusive: 29.1 µM [rising, single point] | – |
| Cc1csc(NC(=O)c2sc3nc(-c4cccs4)ccc3c2N)n1 | active: 20.6 µM | – |
| Cc1nc2ccccc2c2c1C(=O)N(c1cccc(C(=O)O)c1)C2=O | inconclusive: 23.1 µM [rising, single point] | – |
| COc1ccc(S(=O)(=O)N(C)C)cc1NC(=O)c1ccc2c(c1)NC(=O)C(C)S2 (stereo not given) | inconclusive: 25.9 µM [cytotoxic, single point] | – |
| Cc1cc2occ(CC(=O)NC3=NCCS3)c2cc1C(C)C | – | inconclusive: -55.6% |
| CC(=O)N/C(=C/c1ccccc1)C(=O)NCCO | inactive | – |
| Cc1ccc(C(=O)Nc2cccc(S(=O)(=O)N(C)c3ccccc3)c2)o1 | active: 16.4 µM | – |
| O=C(c1ccc(COc2ccccc2[N+](=O)[O-])o1)N1CCCCCC1 | inconclusive: 14.6 µM [cytotoxic, partial curve] | – |
| O=C(COc1ccc(-n2cnnn2)cc1)Nc1cc(Cl)cc(Cl)c1 | inactive | – |
| CCCCN(C)c1c(C)nc2ccc(C(=O)NCCOc3ccc(OC)cc3)cn12 | inactive | – |
| Cc1cccc(C)c1NC(=O)CN(C)c1ccc(C(F)(F)F)cn1 | inactive | – |
| COc1ccc(-n2c(O)cnc2Nc2nc(C)cc(C)n2)cc1OC | inactive | – |
| COc1cccc2c1C(=O)C=C(C)C2=O | inconclusive: 29.1 µM [cytotoxic, single point] | – |

| SMILES | Potency | activity change, negative = cytotoxicity |
| --- | --- | --- |
| O=C(NCc1ccc(F)cc1)c1noc2c1CCCC2 | inactive | – |
| CCOC(=O)NC(=O)/C(C#N)=N/Nc1c(F)cccc1F | inconclusive: 29.1 µM [rising, single point] | – |
| Cc1ccccc1OCCCN1C(=O)C(=O)c2cccc(C)c21 | inactive | – |
| CCC(=O)Nc1ccc(S(=O)(=O)N2CCC(c3nc4ccccc4[nH]3)CC2)cc1 | inactive | – |
| COc1ccc(CN2C(=O)c3ccccc3C2c2nnnn2-c2ccc3c(c2)OCCO3)cc1OC (stereo not given) | inconclusive: 11.6 µM [cytotoxic, partial curve] | – |
| C[C@@]12CCC=C[C@H]1[C@H](c1ccccc1Br)N(Cc1ccccc1)C2=O | inactive | – |
| Cc1c(Cl)c([N+](=O)[O-])nn1CC(=O)Nc1ccc2c(c1)OCO2 | inactive | – |
| CCN1C(=O)/C(=C\c2cn(CCC#N)nc2-c2ccc(F)cc2)SC1=S | inactive | – |
| COc1ccc(NC(=O)c2oc3ccccc3c2NC(=O)COc2ccc(C(C)C)cc2)c(OC)c1 | inconclusive: 25.9 µM [rising, single point] | – |
| COc1ccc2nc(Nc3nc(-c4cc5ccccc5oc4=O)cs3)sc2c1 | inconclusive: 10.3 µM [cytotoxic, partial curve] | – |
| CCCn1c(N)c(N(CCOC)C(=O)c2ccc(-c3ccc(Cl)cc3)o2)c(=O)[nH]c1=O | inactive | – |
| O=C(CCNC(=O)c1ccccc1)NNC(=O)COc1ccccc1Cl | inactive | – |
| Cc1cc2nc(-c3nnnn3C3CCCCC3)c(=O)[nH]c2cc1C | inconclusive: 29.1 µM [rising, partial curve, poor fit] | – |
| CCSc1nc2n(n1)C(c1ccc(C(=O)O)cc1)C(C(=O)Nc1ccccc1C)=C(C)N2 (stereo not given) | inconclusive: 16.4 µM [rising, single point] | – |
| O=C(c1cccc(S(=O)(=O)Nc2ccccc2Cl)c1)N1CCCCCC1 | active: 18.4 µM | – |
| COc1ccccc1/C=C/C(=O)OCC(=O)c1c(N)n(C)c(=O)n(C)c1=O | inconclusive: 16.4 µM [cytotoxic, single point] | – |
| CCOc1cc(CNC(=O)CN2CCSc3ccccc32)cc(OCC)c1OCC | inconclusive: 5.8 µM [cytotoxic, partial curve] | – |
| CC(=O)c1cccc(OCC(=O)Nc2ccccc2N2CCOCC2)c1 | inconclusive: 29.1 µM [cytotoxic, single point] | – |
| CCCOc1ccc(-c2nc(C#N)c(N3CCN(C)CC3)o2)cc1 | inactive | – |
| Nc1nc(=S)[nH]c2c1C1(CCCC1)Cc1ccccc1-2 | inactive | – |
| Cc1ccc(N(CC(=O)Nc2ccc(Cl)cc2)S(=O)(=O)c2cccc3nonc23)cc1 | inconclusive: 25.9 µM [cytotoxic, partial curve, poor fit] | – |
| O=C(Nc1ccc(Cl)cc1)C1CCC(=O)N1Cc1ccccc1Cl (stereo not given) | inconclusive: 18.4 µM [cytotoxic, partial curve] | – |
| Cc1cc(C(=O)NCC(C)(C)N2CCOCC2)c(C)o1 | inactive | – |
| c1ccc2c(c1)OCC(c1csc3ncnc(N4CCCCC4)c13)O2 (stereo not given) | inconclusive: 29.1 µM [cytotoxic, single point] | – |
| Cc1ccc(NC(=O)Cc2coc3ccc(C(C)C)cc23)cc1Cl | active: 16.4 µM | – |
